Further values from the same series stand in other lists.
Tested on: library of 8,380 IKZF3 degrons (ZF-eGFP/mCherry reporter) in Jurkat cells
Test: Pooled library screen (FACS, NGS, limma voom LogFC of positive vs negative read counts)
Format: cell-based, human
Experimental: A library of 8,380 IKZF3 degrons was cloned into pLVX-Sprout to create the eGFP/mCherry protein degradation reporter plasmid pool. A lentivirus pool was then generated using the Lenti-X lentiviral vector production method.
Jurkat cells were transduced at a multiplicity of infection of <0.3 with the lentivirus vector library in order to maximise the number of cells with a single integration. Transductions were carried out in 6 well TC-treated cell culture dishes (Falcon) with 3×10^6 cells per well. Cells were incubated for 2 days at 37° C. and 5% CO2 before the supernatant was removed and replaced with fresh media. 6 days post-transduction, mCherry+ cells were isolated via FACS using the FACS Aria Fusion (BD) in a buffer containing PBS (Gibco), 2 mM EDTA (Gibco), 25 mM HEPES (Sigma) and 1% BSA (Sigma). 8 days later, cells were treated with DMSO or a thalidomide analog for 18 hours at 37° C. and 5% CO2. mCherry+GFPlow and NOT(mCherry+GFPlow) cells were sorted by FACS using the FACS Aria Fusion (BD). DMSO treated cells were used to set the mCherry+GFPlow gate and dead cells were excluded from sorting by staining cells with 1 μg/mL DAPI (ThermoFisher). gDNA was isolated using the Maxwell RSC 48 (Promega). gDNA from cells that were unsorted and untreated were also isolated to determine the library representation on the day of compound treatment. Throughout the screen >600× coverage of the library was maintained. 3 biological replicates were carried out with a new transduction taking place each time.
A two-step PCR was used where the first PCR (PCR1) amplified the integrated degron sequence from gDNA and the second PCR (PCR2) added Illumina adaptors and barcodes to permit multiplexing. See Supp F for PCR1 and PCR2 primers. Q5 Hot Start High-Fidelity 2× Master Mix (New England Biolabs) was used for both PCRs. Sufficient gDNA was amplified in PCR1 in order to maintain >600× coverage and amplicons were purified using solid phase reversible immobilization (SPRI) beads (Beckman Coulter). Purified PCR1 products were analysed on the Tapestation 4200 (Agilent) to confirm purity prior to proceeding to PCR2. Sufficient PCR1 product was amplified in PCR2 in order to maintain >600× coverage and amplicons were run on a 2% agarose TAE gel. Target bands were excised and purified using the NucleoSpin Gel and PCR Clean-up Kit (Machery Nagel). Amplicons were analysed on the Tapestation 4200 and quantified using Qubit dsDNA HS kit (ThermoFisher). PCR products were pooled and sequenced as paired-reads on the NovaSeq (Illumina) using a SP2 200 cycles kit (Illumina).
Count distributions, percentage of read mapping, library coverage and replicate correlation per sample were assessed for QC purposes.
To carry out the library screen, we used the same plasmid construct as in our earlier flow cytometry assays, but pooling all 8,380 mutants together into one Jurkat population, ensuring a copy number of one plasmid per cell (FIG. 4B). […] These GFP-negative cells were then separated from the remaining GFP-positive population using fluorescence activated cell sorting (FACS). These two populations were then sequenced and the relative abundance of every mutant in both populations compared to provide a log FC value for each mutant sequence. This value indicated how frequently a sequence is observed in the GFP-negative population relative to the GFP-positive population, and therefore how effective a degron it is for that particular IMID compound.

`O=C1CCC(N2C(=O)c3ccc(N4CCOCC4)cc3C2=O)C(=O)N1` (stereo not shown) [B03] gave a B03_logFC (degron 4515 (SEQ ID NO 3620) 46F_47Y_49P_50I_52G_53A_54S_55F_67L) of 3.432, a B03_logFC (degron 4516 (SEQ ID NO 3550) 46F_47Y_49P_50I_52G_53A_54T_55F_67L) of 3.573 and a B03_logFC (degron 4541 (SEQ ID NO 3633) 46F_47Y_49P_50V_52G_53A_54C_55F_67L) of 3.401. The B03_logFC (degron 4546 (SEQ ID NO 3597) 46F_47Y_49P_50V_52G_53A_54H_55F_67L) was 3.485, the B03_logFC (degron 4553 (SEQ ID NO 3522) 46F_47Y_49P_50V_52G_53A_54Q_55F_67L) was 3.652 and the B03_logFC (degron 4556 (SEQ ID NO 3638) 46F_47Y_49P_50V_52G_53A_54T_55F_67L) was 3.381. The B03_logFC (degron 6540 (SEQ ID NO 3575) 46L_47F_49P_50I_52G_53F_54A_55C_67L) was 3.521, the B03_logFC (degron 6541 (SEQ ID NO 3606) 46L_47F_49P_50I_52G_53F_54C_55C_67L) was 3.463 and the B03_logFC (degron 6555 (SEQ ID NO 3558) 46L_47F_49P_50I_52G_53F_54S_55C_67L) was 3.556. For the same molecule, the B03_logFC (degron 6556 (SEQ ID NO 3563) 46L_47F_49P_50I_52G_53F_54T_55C_67L) was 3.545, the B03_logFC (degron 6595 (SEQ ID NO 3595) 46L_47H_49P_50I_52G_53F_54S_55C_67L) was 3.488 and the B03_logFC (degron 6732 (SEQ ID NO 3570) 46L_47R_49P_50I_52G_53F_54P_55C_67L) was 3.536. The B03_logFC (degron 6775 (SEQ ID NO 3643) 46L_47T_49P_50I_52G_53F_54S_55C_67L) was 3.371, the B03_logFC (degron 6795 (SEQ ID NO 3531) 46L_47V_49P_50I_52G_53F_545_55C_67L) was 3.628 and the B03_logFC (degron 6801 (SEQ ID NO 3589) 46L_47W_49P_50I_52G_53F_54C_55C_67L) was 3.492. It also gave a B03_logFC (degron 6806 (SEQ ID NO 3568) 46L_47W_49P_50I_52G_53F_54H_55C_67L) of 3.537, a B03_logFC (degron 6810 (SEQ ID NO 3642) 46L_47W_49P_50I_52G_53F_54M_55C_67L) of 3.371 and a B03_logFC (degron 6811 (SEQ ID NO 3587) 46L_47W_49P_50I_52G_53F_54N_55C_67L) of 3.498. For the same molecule, the B03_logFC (degron 6813 (SEQ ID NO 3576) 46L_47W_49P_50I_52G_53F_54Q_55C_67L) was 3.516, the B03_logFC (degron 6815 (SEQ ID NO 3551) 46L_47W_49P_50I_52G_53F_54S_55C_67L) was 3.567 and the B03_logFC (degron 6816 (SEQ ID NO 3494) 46L_47W_49P_50I_52G_53F_54T_55C_67L) was 3.712. The B03_logFC (degron 6821 (SEQ ID NO 3555) 46L_47Y_49P_50I_52G_53F_54C_55C_67L) was 3.559, the B03_logFC (degron 6826 (SEQ ID NO 3594) 46L_47Y_49P_50I_52G_53F_54H_55C_67L) was 3.488 and the B03_logFC (degron 6833 (SEQ ID NO 3557) 46L_47Y_49P_50I_52G_53F_54Q_55C_67L) was 3.557. The B03_logFC (degron 6834 (SEQ ID NO 3634) 46L_47Y_49P_50I_52G_53F_54R_55C_67L) was 3.395, the B03_logFC (degron 6835 (SEQ ID NO 3493) 46L_47Y_49P_50I_52G_53F_54S_55C_67L) was 3.721 and the B03_logFC (degron 6836 (SEQ ID NO 3528) 46L_47Y_49P_50I_52G_53F_54T_55C_67L) was 3.628. It also gave a B03_logFC (degron 6837 (SEQ ID NO 3590) 46L_47Y_49P_50I_52G_53F_54V_55C_67L) of 3.492, a B03_logFC (degron 7681 (SEQ ID NO 3636) 46L_47F_49E_50I_52G_53F_54C_55C_67L) of 3.386 and a B03_logFC (degron 7693 (SEQ ID NO 3631) 46L_47F_49E_50I_52G_53F_54Q_55C_67L) of 3.411. It also gave a B03_logFC (degron 7694 (SEQ ID NO 3525) 46L_47F_49E_50I_52G_53F_54R_55C_67L) of 3.641, a B03_logFC (degron 7695 (SEQ ID NO 3580) 46L_47F_49E_50I_52G_53F_54S_55C_67L) of 3.511 and a B03_logFC (degron 7696 (SEQ ID NO 3510) 46L_47F_49E_50I_52G_53F_54T_55C_67L) of 3.671. It also gave a B03_logFC (degron 7697 (SEQ ID NO 3611) 46L_47F_49E_50I_52G_53F_54V_55C_67L) of 3.453, a B03_logFC (degron 7946 (SEQ ID NO 3598) 46L_47W_49E_50I_52G_53F_54H_55C_67L) of 3.484 and a B03_logFC (degron 7953 (SEQ ID NO 3588) 46L_47W_49E_50I_52G_53F_54Q_55C_67L) of 3.493. The B03_logFC (degron 7954 (SEQ ID NO 3586) 46L_47W_49E_50I_52G_53F_54R_55C_67L) was 3.499, the B03_logFC (degron 7955 (SEQ ID NO 3479) 46L_47W_49E_50I_52G_53F_54S_55C_67L) was 3.789 and the B03_logFC (degron 7956 (SEQ ID NO 3476) 46L_47W_49E_50I_52G_53F_54T_55C_67L) was 3.795. For the same molecule, the B03_logFC (degron 7960 (SEQ ID NO 3585) 46L_47Y_49E_50I_52G_53F_54A_55C_67L) was 3.504, the B03_logFC (degron 7966 (SEQ ID NO 3627) 46L_47Y_49E_50I_52G_53F_54H_55C_67L) was 3.418 and the B03_logFC (degron 7974 (SEQ ID NO 3459) 46L_47Y_49E_50I_52G_53F_54R_55C_67L) was 3.902. For the same molecule, the B03_logFC (degron 7976 (SEQ ID NO 3583) 46L_47Y_49E_50I_52G_53F_54T_55C_67L) was 3.508.
